This assay deals with T1, ALCAM/CD166 (UniProt Q13740).
T1 sequence (looked up): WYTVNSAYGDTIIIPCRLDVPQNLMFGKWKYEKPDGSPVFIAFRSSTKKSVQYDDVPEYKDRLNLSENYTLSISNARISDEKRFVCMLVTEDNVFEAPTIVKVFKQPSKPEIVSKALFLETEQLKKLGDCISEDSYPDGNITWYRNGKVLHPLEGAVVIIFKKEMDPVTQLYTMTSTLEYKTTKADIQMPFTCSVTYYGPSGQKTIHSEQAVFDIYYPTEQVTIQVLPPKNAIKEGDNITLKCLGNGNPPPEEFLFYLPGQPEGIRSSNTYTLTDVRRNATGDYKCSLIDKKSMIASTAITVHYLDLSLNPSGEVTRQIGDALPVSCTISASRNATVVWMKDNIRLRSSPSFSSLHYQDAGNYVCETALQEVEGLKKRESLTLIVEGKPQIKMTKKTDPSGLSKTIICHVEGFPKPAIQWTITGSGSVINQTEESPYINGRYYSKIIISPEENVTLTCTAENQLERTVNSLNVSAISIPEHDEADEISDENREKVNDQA
Description: summary table, row 'Target antigen'.

Results are given in words; binding and its absence hold for the method and conditions named. Some binding calls cover weakened binding; strength is not graded here.

B1: GPD32 scFv (scFv)
scFv: QVQLQESGGGLVQPGGSLRLSCAASGFTFSSYALSWVRQAPGKGLEWVSAISGSGGSTYYAGSVKGRFTISRDNSKNTLYLQMNSLRAEDTAVYYCAKGLIASHWGQGTLVTVSSGGGGSGGGGSGGGGSSELTQDPAVSVALGQTVRITCQGDSLRSYYASWYQQKPGQAPVLVIYGKNNRPSGIPDRFSGSSSGNTASLTITGAQAEDEADYYCNSRDSSGIHLVFGGGTKLTVL
As to B1, the binding entry is recorded as “binds”.

For the origin of these results see patent US20120039915A1.
